The entries are a selection whose mix differs from that of the whole data set. At the low end of the ranking, values are background and their order means little.
Target: SPI1 (UniProt P17947)
Assay: DAPPL (digital affinity profiling via proximity ligation, sequencing)
Conditions: 10 mM Tris-HCl pH 7.5, 50 mM NaCl, 1 mM DTT, 4% glycerol, room temperature, 30 min; GST-TFs on glutathione beads, 16-mer random dsDNA library, 0.1% …; high values mean tight binding; double strand, one strand shown; scale: fold enrichment (6-mer frequency, TF over GST control)

Sequence	binding signal
GCTGCT	1.19
AACCGG	1.7
AGTACG	1.02
CAAGCC	0.955
AGCATC	0.962
ACACCC	0.996
ATAACC	1.06
GGTTAA	0.918
CTGGAA	1.26
CAATAG	1.04
GATAAA	0.999
TTAGAT	0.99
GACCGA	0.864
GTCATT	0.93
CACTCC	1.23
ATAGTG	0.862
CCACCA	0.971
AGTTAT	0.959
GCATTA	0.8
TGCGGT	0.967
CATAGT	0.901
CGCGAA	0.966
ATTCGG	0.917

Sequence	binding signal
ATAAGG	1.05
CGAATT	1.22
CAAACG	0.991
ATCCGT	0.966
TGTCTA	1.09
TGCGTT	1.1
ACTCGG	0.972
TCTGGT	1.31
ATGCCA	0.988
CGCTAA	0.96
AAGTAT	1.36
GCGACA	0.975
TATCAA	1.02
CCGTCT	1.43
CCTTCA	1.36
AAGGCT	0.907
TTGCAG	1.08
ATAGAC	1.02
GTACCA	1.11
GAATGG	0.98
TGGGTA	0.98
TTCGCA	1.32
CGCTGT	0.882

Sequence	binding signal
TACAGC	0.931
CTGGTA	1.33
CGCGTT	0.967
ATCGTT	0.935
AGTATT	1.1
TGTCCG	1.2
TGCAGA	0.978
TCAGTT	0.956
GATCTG	0.853
CTGGGG	0.765
TAAATC	1.21
TACCTT	1.33
ACAGCC	0.997
AGGAAT	0.772
ACTAGA	0.93
TTCAAC	1.28
TCGTTA	0.941
GCCGCC	1.13
AGTTTG	0.915
CGCAAC	0.919
CTGTGG	0.881
AGGGAT	0.696
TGCTCC	1.38

Sequence	binding signal
TTGGAT	0.918
TTCTGA	1.21
GATATT	0.98
AGAGAT	0.912
GCCACC	0.918
ATTGCA	1.19
GCGAAG	0.821
CTATCA	1.01
ACACTC	1.09
ATATCA	1.13
GGTCAC	0.95
TGAATG	1.26
GTTTTA	1.12
ATTTTG	1.31
AGCTTG	0.93
CACACC	0.946
CCGGTC	1.01
CCACAT	1.07
TTACTA	1.27
TACAGG	1.12
GCGATA	1.03
GTGTCT	0.976
CTGTGC	1.02

Sequence	binding signal
GCCCGG	0.904
AGCTCG	0.993
AAATGC	1.48
GAATGA	0.982
CGACAG	0.901
ATTAGT	0.934
GTCCGG	0.903
GTGTTA	0.918
ATCAGA	0.876
CTGTTC	1.42
GTGATG	0.929
AGCGGC	0.915
AGATTA	1.01
GATGTA	1.3
CCAGAT	0.841
CAATTT	1.32
GAAACC	0.99
TAGAGA	0.828
TCCTAG	1.12
CGCGCA	0.912
CAACTA	1.28
TAGGAA	1.23
GTTCGT	0.936

Single values from the list.
Entry of TGCGGT under binding signal: 0.967
Entry of CTATCA under binding signal: 1.01
Entry of GTCATT under binding signal: 0.93

— article PMC7862700
